Measured values: patent US20260382643A1, “MITOCHONDRIA-TARGETED N-ACETYLCYSTEINE AND ANALOGS” (published 2026)
The source holds more than one record for some entries. Only these are listed. There may be further records. The values listed for one entry differ, and nothing given here explains why; dose, time, organism, isomer or construct need not be as stated for each record.

System: cancer cells (MiaPaCa-2, MDA-MB-231, MCF-7, A549)
Experiment: Cell proliferation (IncuCyte), several cancer cell lines
Conditions: vs NAC

Structure (SMILES): CC(=O)N[C@@H](CS)C(=O)NCCCCCCCCCC[P+](c1ccccc1)(c1ccccc1)c1ccccc1
- antiproliferative potency of Mito10-NAC relative to NAC (times/fold): 1,500-2,000 fold and 2,000 fold and 1,500-2,400 fold
